This note sets out measurements from paper PMC12508687, “Elucidating the Role and Mechanism of Alpha‐Enolase in Senescent Amelioration via Metabolic Reprogramming” (Cell Proliferation, 2025).

By UniProt entry, the sequences of proteins in these tests, tags left out. Where a name states a change or a piece, a line headed by the entry shows the natural chain unless it says otherwise. Chains listed by the source or under a name are the forms on record and can include a tag or linker. Residues count along the entry.
UniProt P06733: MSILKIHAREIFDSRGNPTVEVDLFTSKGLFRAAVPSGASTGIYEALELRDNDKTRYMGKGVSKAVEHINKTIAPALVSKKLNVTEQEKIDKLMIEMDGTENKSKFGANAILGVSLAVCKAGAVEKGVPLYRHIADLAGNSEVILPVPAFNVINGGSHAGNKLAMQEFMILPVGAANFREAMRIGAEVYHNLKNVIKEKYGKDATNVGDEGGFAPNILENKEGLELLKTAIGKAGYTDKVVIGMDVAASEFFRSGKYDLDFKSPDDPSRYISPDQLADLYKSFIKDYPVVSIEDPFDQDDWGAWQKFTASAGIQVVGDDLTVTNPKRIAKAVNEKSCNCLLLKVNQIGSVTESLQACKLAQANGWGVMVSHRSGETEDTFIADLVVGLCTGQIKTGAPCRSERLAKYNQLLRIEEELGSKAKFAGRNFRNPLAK
Myc-tagged ENO1 (alpha-enolase): residues 2-434 of P06733
UniProt P14618: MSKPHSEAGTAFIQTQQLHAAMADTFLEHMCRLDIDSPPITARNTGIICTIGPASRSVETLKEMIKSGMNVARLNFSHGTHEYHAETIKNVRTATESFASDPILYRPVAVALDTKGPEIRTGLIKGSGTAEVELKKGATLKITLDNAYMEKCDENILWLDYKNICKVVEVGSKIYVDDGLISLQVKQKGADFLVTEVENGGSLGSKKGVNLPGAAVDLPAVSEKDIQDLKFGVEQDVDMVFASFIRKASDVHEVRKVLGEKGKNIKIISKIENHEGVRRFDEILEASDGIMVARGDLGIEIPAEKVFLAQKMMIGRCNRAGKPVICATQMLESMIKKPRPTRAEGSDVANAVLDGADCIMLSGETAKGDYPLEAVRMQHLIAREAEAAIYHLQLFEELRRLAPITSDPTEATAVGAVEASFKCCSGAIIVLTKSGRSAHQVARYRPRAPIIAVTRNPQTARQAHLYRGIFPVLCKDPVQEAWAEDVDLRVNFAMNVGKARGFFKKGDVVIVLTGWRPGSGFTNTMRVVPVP

Results are given in words; binding and its absence hold for the method and conditions named. In cells and extracts the contact can be indirect. Some entries that bind do so weakly or less than the wild type.

The target of experiment [1] is Myc-tagged ENO1 (alpha-enolase) (UniProt P06733). Kind of experiment: co-IP; HEK293T cells transfected with pCMV-Myc-PKM or pCMV-Myc-ENO1, treated with DMSO or KB2764, immunoprecipitated with Myc-tag antibody; endogenous partner detected by immunoblot. A general note: Immunoblotting shows a protein as a band on a membrane.
In experiment [2] the target is Myc-tagged PKM (pyruvate kinase M) (UniProt P14618). Described as above.

Regarding “endogenous PKM (pyruvate kinase M) (from UniProt P14618 1-531) (enzyme)”, in experiment [1], the binding result is reported as “binds”.

Turning to “endogenous ENO1 (alpha-enolase) (from UniProt P06733 1-434) (enzyme)”, in experiment [2], the binding result was “binds”.
